≈ marks a conversion by molar mass, not a printed value.
System: Staphylococcus aureus ATCC 6538P
Test: MIC, broth microdilution
Assay type: cell-based
Conditions: ATCC6538P
Experimental: MIC (Minimum Inhibitory Concentration) analyses were performed on Gram-positive and Gram-negative bacteria by a broth microdilution method previously described, with minor modifications. In details, assays were carried out in Nutrient Broth 0.5× (Difco, Detroit, MI, USA) using sterile 96-well polypropylene microtiter plates (cat. 3879, Costar Corp., Cambridge, MA, USA). Bacterial strains were grown in Luria–Bertani (LB) medium overnight at 37 °C and then diluted in nutrient broth at a final concentration of ~ 5 × 10^5 CFU/mL per well. […] Peptide concentrations were determined by spectrophotometric analysis using the extinction coefficients calculated by the ProtParam tool (http://web.expasy.org/protparam/). Twofold serial dilutions of peptides were carried out in the test wells (0.2–100 μM concentration range). Plates were incubated overnight at 37 °C. MIC value was taken as the lowest concentration at which growth was inhibited. Three independent experiments were performed for each MIC value. […] MIC values were measured on: Pseudomonas aeruginosa PAO1, Acinetobacter baumanii ATCC 17878, Escherichia coli ATCC 25922, Salmonella typhimurium ATCC 14028, Salmonella enteritidis 706 RIVM (kindly provided by Prof. E. Veldhuizen, Utrecht University, Holland), Staphylococcus aureus ATCC 6538P, and Enterococcus faecalis ATCC 29212.

SMILES: CN[C@H](CC(C)C)C(=O)N[C@H]1C(=O)N[C@@H](CC(N)=O)C(=O)N[C@H]2C(=O)N[C@H]3C(=O)N[C@H](C(=O)N[C@H](C(=O)O)c4cc(O)cc(O)c4-c4cc3ccc4O)[C@H](O)c3ccc(c(Cl)c3)Oc3cc2cc(c3O[C@@H]2O[C@H](CO)[C@@H](O)[C@H](O)[C@H]2O[C@H]2C[C@](C)(N)[C@H](O)[C@H](C)O2)Oc2ccc(cc2Cl)[C@H]1O [Vancomycin, vancomycin]
- MIC: 0.5 mg/L (≈ 0.345 µM)

Reference: paper PMC8038955, “Antimicrobial D-amino acid oxidase-derived peptides specify gut microbiota” (Cellular and Molecular Life Sciences: CMLS, 2021)
